Measured values as given in the supplement of paper PMC10849652.
The list shows a part of the results.

Sequences of proteins named here, by UniProt entry; tags and fusion partners are left off. A change or cut given only in a name is not applied to a line headed by its entry.
UniProt Q96JJ7: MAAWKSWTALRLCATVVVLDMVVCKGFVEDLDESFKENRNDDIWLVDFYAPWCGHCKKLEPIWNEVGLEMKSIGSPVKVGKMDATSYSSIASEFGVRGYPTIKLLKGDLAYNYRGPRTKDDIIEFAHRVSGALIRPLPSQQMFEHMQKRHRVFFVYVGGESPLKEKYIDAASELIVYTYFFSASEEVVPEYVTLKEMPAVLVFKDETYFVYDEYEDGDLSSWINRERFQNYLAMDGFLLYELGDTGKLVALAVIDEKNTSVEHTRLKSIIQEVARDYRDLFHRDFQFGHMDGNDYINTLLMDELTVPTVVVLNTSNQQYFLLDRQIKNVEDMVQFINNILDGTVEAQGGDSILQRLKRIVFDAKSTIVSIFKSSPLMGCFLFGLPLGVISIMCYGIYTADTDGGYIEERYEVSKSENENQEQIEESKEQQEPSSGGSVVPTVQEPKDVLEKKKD
UniProt Q15388, whole entry, looked up: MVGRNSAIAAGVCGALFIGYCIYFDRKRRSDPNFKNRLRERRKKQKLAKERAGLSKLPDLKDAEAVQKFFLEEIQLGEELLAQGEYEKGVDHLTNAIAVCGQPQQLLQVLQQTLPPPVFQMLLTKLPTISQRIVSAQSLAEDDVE
UniProt Q96S44: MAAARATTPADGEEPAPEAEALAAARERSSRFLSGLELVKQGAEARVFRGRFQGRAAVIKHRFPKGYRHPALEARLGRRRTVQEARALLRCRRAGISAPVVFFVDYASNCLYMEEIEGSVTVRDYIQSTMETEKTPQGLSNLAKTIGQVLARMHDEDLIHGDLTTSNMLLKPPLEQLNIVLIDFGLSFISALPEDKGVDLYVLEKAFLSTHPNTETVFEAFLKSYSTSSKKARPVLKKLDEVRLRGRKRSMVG
UniProt Q6UW68: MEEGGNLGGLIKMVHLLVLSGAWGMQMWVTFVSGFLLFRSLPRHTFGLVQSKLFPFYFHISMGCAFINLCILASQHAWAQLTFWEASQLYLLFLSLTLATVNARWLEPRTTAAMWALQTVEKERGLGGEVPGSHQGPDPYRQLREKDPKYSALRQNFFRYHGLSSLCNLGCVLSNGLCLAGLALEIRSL
UniProt Q96MH6: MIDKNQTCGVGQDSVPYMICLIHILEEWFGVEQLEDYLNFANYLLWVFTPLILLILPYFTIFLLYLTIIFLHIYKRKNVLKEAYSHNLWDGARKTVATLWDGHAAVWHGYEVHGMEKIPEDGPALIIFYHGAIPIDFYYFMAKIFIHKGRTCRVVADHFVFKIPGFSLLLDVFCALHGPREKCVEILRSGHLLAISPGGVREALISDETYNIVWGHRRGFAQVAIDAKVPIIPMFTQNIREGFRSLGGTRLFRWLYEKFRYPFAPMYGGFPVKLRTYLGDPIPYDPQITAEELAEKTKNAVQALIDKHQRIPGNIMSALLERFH
UniProt Q9NZR1: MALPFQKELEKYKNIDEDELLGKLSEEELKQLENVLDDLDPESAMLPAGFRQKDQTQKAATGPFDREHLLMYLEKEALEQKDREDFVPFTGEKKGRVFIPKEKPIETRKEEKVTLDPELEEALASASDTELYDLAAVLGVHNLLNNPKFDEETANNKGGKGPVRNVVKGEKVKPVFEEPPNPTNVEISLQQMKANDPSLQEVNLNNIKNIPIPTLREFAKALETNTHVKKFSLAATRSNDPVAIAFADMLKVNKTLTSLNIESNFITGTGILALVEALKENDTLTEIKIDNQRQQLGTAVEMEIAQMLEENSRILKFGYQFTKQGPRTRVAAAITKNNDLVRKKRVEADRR
UniProt Q9BTV4: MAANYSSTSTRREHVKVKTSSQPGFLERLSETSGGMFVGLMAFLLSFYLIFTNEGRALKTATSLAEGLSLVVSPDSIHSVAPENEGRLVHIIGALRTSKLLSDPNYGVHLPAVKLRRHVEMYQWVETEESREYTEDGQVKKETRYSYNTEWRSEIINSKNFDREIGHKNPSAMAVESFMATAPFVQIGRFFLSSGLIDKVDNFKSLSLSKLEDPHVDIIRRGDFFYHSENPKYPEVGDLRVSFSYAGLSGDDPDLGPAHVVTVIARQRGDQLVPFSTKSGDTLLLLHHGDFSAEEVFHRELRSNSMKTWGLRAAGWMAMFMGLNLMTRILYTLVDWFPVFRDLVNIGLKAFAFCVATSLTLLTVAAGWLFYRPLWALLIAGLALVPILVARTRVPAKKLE
UniProt Q8NDV7: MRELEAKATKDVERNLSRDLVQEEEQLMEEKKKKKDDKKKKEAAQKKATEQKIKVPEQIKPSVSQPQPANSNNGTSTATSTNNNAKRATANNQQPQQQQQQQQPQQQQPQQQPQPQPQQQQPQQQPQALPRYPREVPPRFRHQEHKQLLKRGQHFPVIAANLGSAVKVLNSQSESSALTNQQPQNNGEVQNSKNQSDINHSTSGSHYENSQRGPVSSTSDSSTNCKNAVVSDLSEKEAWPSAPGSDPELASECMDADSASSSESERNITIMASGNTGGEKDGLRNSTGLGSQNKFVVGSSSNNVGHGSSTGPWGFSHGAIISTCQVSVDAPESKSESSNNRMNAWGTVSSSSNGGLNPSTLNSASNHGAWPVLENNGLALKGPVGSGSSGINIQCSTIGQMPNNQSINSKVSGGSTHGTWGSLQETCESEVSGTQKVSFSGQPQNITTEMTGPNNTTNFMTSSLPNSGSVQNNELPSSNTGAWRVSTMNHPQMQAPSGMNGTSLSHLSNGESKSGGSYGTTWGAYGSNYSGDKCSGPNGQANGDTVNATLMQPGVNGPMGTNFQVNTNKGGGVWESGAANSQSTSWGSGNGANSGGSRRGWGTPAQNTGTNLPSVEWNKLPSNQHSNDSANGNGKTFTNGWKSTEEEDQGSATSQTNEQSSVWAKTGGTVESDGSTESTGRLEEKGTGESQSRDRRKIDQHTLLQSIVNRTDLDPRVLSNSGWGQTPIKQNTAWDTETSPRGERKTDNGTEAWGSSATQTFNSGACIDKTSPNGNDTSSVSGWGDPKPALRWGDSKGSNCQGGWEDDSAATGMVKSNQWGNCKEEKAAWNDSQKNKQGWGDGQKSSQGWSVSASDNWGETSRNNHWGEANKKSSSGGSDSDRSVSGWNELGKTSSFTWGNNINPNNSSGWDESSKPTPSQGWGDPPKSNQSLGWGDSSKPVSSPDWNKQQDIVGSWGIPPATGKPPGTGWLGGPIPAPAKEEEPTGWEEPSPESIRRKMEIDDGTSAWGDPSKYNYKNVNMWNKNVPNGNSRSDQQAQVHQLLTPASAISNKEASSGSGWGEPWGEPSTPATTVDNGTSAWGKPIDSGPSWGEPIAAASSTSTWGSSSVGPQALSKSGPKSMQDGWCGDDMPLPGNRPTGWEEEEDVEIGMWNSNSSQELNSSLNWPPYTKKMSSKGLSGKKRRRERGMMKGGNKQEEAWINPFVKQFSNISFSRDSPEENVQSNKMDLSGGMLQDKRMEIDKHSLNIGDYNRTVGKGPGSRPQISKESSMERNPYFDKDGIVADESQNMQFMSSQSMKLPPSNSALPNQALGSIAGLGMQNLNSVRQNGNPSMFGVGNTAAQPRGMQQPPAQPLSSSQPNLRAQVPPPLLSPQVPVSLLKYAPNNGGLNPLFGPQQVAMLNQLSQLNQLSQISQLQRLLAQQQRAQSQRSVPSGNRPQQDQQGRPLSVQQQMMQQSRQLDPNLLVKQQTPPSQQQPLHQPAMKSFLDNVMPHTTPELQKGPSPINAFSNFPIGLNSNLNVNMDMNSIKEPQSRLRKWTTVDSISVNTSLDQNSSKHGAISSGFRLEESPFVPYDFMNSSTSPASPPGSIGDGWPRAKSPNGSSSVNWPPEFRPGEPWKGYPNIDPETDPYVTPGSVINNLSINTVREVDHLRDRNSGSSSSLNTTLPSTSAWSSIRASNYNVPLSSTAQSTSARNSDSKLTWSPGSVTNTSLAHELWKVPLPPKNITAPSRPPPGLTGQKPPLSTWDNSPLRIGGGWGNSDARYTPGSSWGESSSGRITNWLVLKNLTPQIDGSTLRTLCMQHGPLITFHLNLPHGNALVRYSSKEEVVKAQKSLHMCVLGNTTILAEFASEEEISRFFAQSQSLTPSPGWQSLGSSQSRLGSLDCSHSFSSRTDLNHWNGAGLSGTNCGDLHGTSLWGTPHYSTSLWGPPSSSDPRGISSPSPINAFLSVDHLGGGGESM
UniProt Q9NVV0: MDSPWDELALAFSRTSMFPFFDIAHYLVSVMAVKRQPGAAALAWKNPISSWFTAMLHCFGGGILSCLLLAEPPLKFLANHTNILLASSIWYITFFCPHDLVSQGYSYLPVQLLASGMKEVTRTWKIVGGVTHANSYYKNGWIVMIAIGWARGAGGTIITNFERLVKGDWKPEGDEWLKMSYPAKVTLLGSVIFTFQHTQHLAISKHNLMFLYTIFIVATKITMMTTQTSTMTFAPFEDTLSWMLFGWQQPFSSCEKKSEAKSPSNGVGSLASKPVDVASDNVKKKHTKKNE
UniProt Q9P0U1: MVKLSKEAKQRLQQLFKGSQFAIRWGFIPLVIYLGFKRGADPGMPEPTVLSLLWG
UniProt Q96HV5: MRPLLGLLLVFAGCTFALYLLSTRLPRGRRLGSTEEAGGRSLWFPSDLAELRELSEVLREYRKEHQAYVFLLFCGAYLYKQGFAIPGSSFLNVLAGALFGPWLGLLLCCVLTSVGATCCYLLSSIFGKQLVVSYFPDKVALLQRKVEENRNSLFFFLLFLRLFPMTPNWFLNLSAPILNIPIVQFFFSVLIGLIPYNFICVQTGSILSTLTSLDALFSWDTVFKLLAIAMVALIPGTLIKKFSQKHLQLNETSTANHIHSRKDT
UniProt O60704: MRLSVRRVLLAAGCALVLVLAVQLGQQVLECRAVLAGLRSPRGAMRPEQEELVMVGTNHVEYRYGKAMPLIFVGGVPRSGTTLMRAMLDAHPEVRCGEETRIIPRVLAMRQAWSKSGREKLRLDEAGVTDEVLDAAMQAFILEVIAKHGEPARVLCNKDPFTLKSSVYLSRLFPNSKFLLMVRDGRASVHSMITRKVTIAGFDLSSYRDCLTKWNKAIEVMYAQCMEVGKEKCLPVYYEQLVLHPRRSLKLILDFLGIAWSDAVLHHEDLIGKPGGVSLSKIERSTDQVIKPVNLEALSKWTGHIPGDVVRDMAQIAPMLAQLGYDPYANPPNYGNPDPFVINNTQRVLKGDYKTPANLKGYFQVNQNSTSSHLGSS
UniProt Q16890: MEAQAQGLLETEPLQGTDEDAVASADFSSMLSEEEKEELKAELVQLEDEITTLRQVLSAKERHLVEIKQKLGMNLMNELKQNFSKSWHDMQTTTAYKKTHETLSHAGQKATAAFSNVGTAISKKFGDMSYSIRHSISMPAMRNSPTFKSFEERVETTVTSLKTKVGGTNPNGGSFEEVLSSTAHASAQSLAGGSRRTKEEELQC
UniProt Q9H4I3: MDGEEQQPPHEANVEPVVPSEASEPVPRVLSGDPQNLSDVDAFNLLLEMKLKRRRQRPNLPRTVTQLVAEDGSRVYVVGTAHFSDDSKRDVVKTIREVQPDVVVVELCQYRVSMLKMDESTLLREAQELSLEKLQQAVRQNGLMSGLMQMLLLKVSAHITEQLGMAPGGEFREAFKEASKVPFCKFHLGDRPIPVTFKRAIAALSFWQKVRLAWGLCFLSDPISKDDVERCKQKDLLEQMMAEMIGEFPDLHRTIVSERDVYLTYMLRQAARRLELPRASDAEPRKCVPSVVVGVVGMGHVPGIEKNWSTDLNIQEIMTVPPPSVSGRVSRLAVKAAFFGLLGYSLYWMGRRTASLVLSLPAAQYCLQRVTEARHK
UniProt Q96K49: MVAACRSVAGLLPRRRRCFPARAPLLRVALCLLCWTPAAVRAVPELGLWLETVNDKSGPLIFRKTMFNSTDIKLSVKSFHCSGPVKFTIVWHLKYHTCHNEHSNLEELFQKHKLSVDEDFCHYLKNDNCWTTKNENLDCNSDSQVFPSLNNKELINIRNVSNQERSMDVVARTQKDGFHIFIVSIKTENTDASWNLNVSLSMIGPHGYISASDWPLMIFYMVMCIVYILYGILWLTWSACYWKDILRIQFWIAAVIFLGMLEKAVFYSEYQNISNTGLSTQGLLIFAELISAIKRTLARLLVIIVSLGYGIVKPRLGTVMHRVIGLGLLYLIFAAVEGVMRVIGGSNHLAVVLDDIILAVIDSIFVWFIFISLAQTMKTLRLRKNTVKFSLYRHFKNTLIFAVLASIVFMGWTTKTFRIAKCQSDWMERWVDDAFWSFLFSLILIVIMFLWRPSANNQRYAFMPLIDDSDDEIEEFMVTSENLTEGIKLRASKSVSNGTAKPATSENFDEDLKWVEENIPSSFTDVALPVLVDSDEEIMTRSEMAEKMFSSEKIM
UniProt Q86XT9, whole entry, looked up: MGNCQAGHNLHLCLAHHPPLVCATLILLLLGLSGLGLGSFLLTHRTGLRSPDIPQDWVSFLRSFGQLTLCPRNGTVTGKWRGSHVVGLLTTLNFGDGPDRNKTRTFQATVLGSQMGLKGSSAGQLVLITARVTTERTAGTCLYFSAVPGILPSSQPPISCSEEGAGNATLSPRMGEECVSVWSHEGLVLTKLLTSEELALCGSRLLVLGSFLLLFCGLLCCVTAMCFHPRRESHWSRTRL

compound: O=C1NC(=O)C(c2cnc3ccccn23)=C1c1cn2c3c(cc(F)cc13)CN(C(=O)N1CCCCC1)CC2; experiment: log2 fold change, soluble protein after heating vs DMSO (PISA); higher = thermal stabilisation; K562 lysate, 10 uM; active = over 0.2 and 3.5 SD of the protein, either way, in both replicates (recomputed)
In short: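 Values give the log-two fold change in thermal stability against solvent controls, from duplicates. Crude K562 extract at 1 mg/mL protein, made by dounce homogenisation in PBS pH 7.4 with 1 mM MgCl2, was treated with 10 μM compound for 30 min. After 3 min heating across 48°C-58°C, aliquots were pooled, adjusted to 0.5% NP-40 at 4°C and centrifuged at 21,000xg for 90 min. The supernatant was measured by TMTpro 16plex LC-MS/MS with channel sums equalised.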

log2 fold change, inactive:
TPM4 isoform 2 (UniProt P67936) -0.014, TMX3 (UniProt Q96JJ7) -0.008, TOMM20 (UniProt Q15388) 0.068, TPM1 (UniProt H7BYY1) -0.049, TP53RK (UniProt Q96S44) -0.014, TMEM205 (UniProt Q6UW68) 0.03, TMEM68 (UniProt Q96MH6) 0.024, TPCN1 isoform 3 (UniProt Q9ULQ1) -0.006, TPM3 isoform 2 (UniProt P06753) -0.047, TPRG1L (UniProt Q5T0D9) 0.153, TMOD2 (UniProt Q9NZR1) 0.121, TMEM43 (UniProt Q9BTV4) -0.015, TNRC6A (UniProt Q8NDV7) -0.058, TMEM38B (UniProt Q9NVV0) 0.013, TOMM7 (UniProt Q9P0U1) -0.027, TMEM41A (UniProt Q96HV5) -0.094, TPST2 (UniProt O60704) -0.048, TPD52L1 (UniProt Q16890) 0.02, TRABD (UniProt Q9H4I3) -0.028, TMEM87B (UniProt Q96K49) -0.037, TPX2 (UniProt Q9ULW0) 0.009, TNKS1BP1 (UniProt Q9C0C2) -0.004, TMEM219 (UniProt Q86XT9) 0.025
